Some entries share one result that the patent states for a list of compounds.
How the values were obtained:
Format in all cases: in vivo
[1] = test system: fall armyworm (Spodoptera frugiperda); assay: Test B: control of fall armyworm, foliar spray on corn plant; conditions: sprayed at 10 ppm, corn (maize) plant, visually rated as in Test A
[2] = test system: cotton melon aphid (Aphis gossypii); assay: Test E: control of cotton melon aphid through contact and/or systemic means, cotton plant; conditions: sprayed at 50 ppm
[3] = test system: diamondback moth (Plutella xylostella); assay: Test A: control of diamondback moth, foliar spray on radish plant; conditions: sprayed at 10 ppm, 6 days, visually assessed on foliage consumed
Text: For evaluating control of diamondback moth (Plutella xylostella) the test unit consisted of a small open container with a 12-14-day-old radish plant inside. This was pre-infested with 10-15 neonate larvae on a piece of insect diet by use of a core sampler to remove a plug from a sheet of hardened insect diet having many larvae growing on it and transfer the plug containing larvae and diet to the test unit. The larvae moved onto the test plant as the diet plug dried out.
Test compounds or mixtures were formulated using a solution containing 10% acetone, 90% water and 300 ppm X-77™ Spreader Lo-Foam Formula non-ionic surfactant containing alkylarylpolyoxyethylene, free fatty acids, glycols and 2-propanol (Loveland Industries, Inc. Greeley, Colo., USA). The formulated compounds or mixtures were applied in 1 mL of liquid through a SUJ2 atomizer nozzle with ⅛ JJ custom body (Spraying Systems Co. Wheaton, Ill., USA) positioned 1.27 cm (0.5 inches) above the top of each test unit. […]
After spraying of the formulated test compound or mixture, each test unit was allowed to dry for 1 hour and then a black, screened cap was placed on top. […] Plant feeding damage was then visually assessed based on foliage consumed.

[4] = test system: green peach aphid (Myzus persicae); assay: Test C: control of green peach aphid through contact and/or systemic means, radish plant; conditions: sprayed at 50 ppm, 6 days
Experimental: Test compounds or mixtures were formulated using a solution containing 10% acetone, 90% water and 300 ppm X-77™ Spreader Lo-Foam Formula non-ionic surfactant containing alkylarylpolyoxyethylene, free fatty acids, glycols and 2-propanol (Loveland Industries, Inc. Greeley, Colo., USA). The formulated compounds or mixtures were applied in 1 mL of liquid through a SUJ2 atomizer nozzle with ⅛ JJ custom body (Spraying Systems Co. Wheaton, Ill., USA) positioned 1.27 cm (0.5 inches) above the top of each test unit. All experimental compounds in these tests were sprayed at 10 ppm replicated three times. For experimental mixtures in these tests, to obtain the desired mixture concentrations of each compound, twice the desired concentration of each of the two mixture partner compounds were mixed together in equal volumes.
For evaluating control of green peach aphid (Myzus persicae) through contact and/or systemic means, the test unit consisted of a small open container with a 12- to 15-day-old radish plant inside. This was pre-infested by placing on a leaf of the test plant 30-40 aphids on a piece of leaf excised from a culture plant (cut-leaf method). The larvae moved onto the test plant as the leaf piece desiccated. After pre-infestation, the soil of the test unit was covered with a layer of sand.
All test compounds were formulated and sprayed at 50 ppm as described for Test A and replicated three times. Test mixtures were formulated as described for Test A and replicated three times. After spraying of the formulated test compound or mixture, each test unit was allowed to dry for 1 hour and then a black, screened cap was placed on top. The test units were held for 6 days in a growth chamber at 19-21° C. and 50-70% relative humidity. Dead and total number of aphids were counted in each test unit to determine percent mortality.

[5] = test system: potato leafhopper (Empoasca fabae Harris); assay: Test D: control of potato leafhopper through contact and/or systemic means, bean plant; conditions: sprayed at 50 ppm, Longio bean plant, 6 days

Cc1cc(C#N)cc(C(=O)NCC2CC2)c1NC(=O)c1cc(C(F)(F)F)nn1-c1ncccc1Cl [Compound 1]
feeding damage (excellent levels of plant protection) [1]: ≤ 20%
mortality [2]: at least 80%
feeding damage (very good to excellent levels of plant protection) [3]: ≤ 20%
mortality [4]: at least 80%

Cc1cc(Cl)cc(C(=O)NC(C)C2CC2)c1NC(=O)c1cc(Br)nn1-c1ncccc1Cl (racemic) [Compound 29]
feeding damage (excellent levels of plant protection) [1]: ≤ 20%

Cc1cc(Cl)cc(C(=O)NC2(C)CC2)c1NC(=O)c1cc(Br)nn1-c1ncccc1Cl [Compound 9]
feeding damage (excellent levels of plant protection) [1]: ≤ 20%
mortality [2]: at least 80%
mortality [4]: at least 80%
mortality [5]: at least 80%

CC1(NC(=O)c2cc(Cl)cc(Cl)c2NC(=O)c2cc(Br)nn2-c2ncccc2Cl)CC1 [Compound 10]
feeding damage (excellent levels of plant protection) [1]: ≤ 20%
mortality [2]: at least 80%
mortality [4]: at least 80%
mortality [5]: at least 80%

O=C(NCC1CCO1)c1cc(Cl)cc(Cl)c1NC(=O)c1cc(Br)nn1-c1ncccc1Cl (racemic) [Compound 4]
feeding damage (excellent levels of plant protection) [1]: ≤ 20%
mortality [2]: at least 80%
mortality [4]: at least 80%

Cc1cc(C#N)cc(C(=O)NC2(C)CC2)c1NC(=O)c1cc(Br)nn1-c1ncccc1Cl [Compound 11]
feeding damage (excellent levels of plant protection) [1]: ≤ 20%
mortality [2]: at least 80%
mortality [4]: at least 80%
mortality [5]: at least 80%

Cc1cc(Cl)cc(C(=O)NCC2CC2)c1NC(=O)c1cc(Br)nn1-c1ncccc1Cl [Compound 2]
feeding damage (excellent levels of plant protection) [1]: ≤ 20%
mortality [2]: at least 80%
feeding damage (very good to excellent levels of plant protection) [3]: ≤ 20%
mortality [5]: at least 80%

From patent publication US20090133318A1, “Anthranilamide insecticides” (priority 2004, published 2009)
